These are yes or no findings as the source states them, for the method shown. In cells and extracts the contact can be indirect. Some results given as binding are weak or reduced against the parent protein; the word gives no strength. For some assays here: Tags and fused reporters may be left off the sequences shown.

By UniProt entry, the sequences of proteins in these tests, tags left out. Where a name states a change or a piece, a line headed by the entry shows the natural chain unless it says otherwise.
UniProt P25021: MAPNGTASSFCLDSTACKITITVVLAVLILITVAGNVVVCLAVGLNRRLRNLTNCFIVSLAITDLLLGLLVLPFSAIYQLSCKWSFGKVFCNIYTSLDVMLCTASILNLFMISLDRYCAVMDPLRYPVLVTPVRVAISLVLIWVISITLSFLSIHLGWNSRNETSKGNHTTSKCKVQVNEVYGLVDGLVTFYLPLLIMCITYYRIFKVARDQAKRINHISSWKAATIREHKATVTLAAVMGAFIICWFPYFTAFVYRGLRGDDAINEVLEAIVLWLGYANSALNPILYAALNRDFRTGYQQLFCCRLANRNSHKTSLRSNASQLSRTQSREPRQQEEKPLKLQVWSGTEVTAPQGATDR
UniProt P35367: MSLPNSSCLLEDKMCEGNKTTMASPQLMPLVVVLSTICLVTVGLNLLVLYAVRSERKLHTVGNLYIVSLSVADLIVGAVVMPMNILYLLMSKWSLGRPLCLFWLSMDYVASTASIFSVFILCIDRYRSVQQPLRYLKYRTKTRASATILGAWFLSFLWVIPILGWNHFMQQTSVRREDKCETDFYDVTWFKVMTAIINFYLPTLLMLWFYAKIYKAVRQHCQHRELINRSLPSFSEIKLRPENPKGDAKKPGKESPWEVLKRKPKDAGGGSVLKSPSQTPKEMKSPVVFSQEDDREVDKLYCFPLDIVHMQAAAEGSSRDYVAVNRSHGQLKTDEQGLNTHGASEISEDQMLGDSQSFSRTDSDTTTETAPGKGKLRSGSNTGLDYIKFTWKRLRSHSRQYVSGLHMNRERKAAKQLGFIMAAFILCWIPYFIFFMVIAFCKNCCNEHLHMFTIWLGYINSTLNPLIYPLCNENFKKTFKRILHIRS

The target in test [1] is T1, free fatty acid 2 receptor, cell-free synthesized, Strep-tagged (FFAR2-Strep), in nanodiscs (DOPG) (UniProt O15552).
T1 sequence: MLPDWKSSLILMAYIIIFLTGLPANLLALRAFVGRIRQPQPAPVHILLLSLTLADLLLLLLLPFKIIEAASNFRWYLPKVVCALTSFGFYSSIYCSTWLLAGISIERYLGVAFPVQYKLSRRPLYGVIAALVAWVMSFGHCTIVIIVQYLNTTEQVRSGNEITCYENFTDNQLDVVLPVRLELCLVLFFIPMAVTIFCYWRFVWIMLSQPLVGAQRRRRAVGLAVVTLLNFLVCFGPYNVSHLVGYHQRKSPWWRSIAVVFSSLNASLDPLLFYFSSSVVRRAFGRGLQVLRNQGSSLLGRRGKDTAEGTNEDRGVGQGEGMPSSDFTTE
The test can be described thus: pull-down.

Test [2] concerns the target human histamine 2 receptor, cell-free synthesized, Strep-tagged (H2R-Strep), in nanodiscs (DOPG) (human) (UniProt P25021). The test can be described thus: pull-down.

Regarding “Flag-tagged H1R expressed in HEK293T cells (Flag-H1R) (from UniProt P35367 1-487) (receptor)”, the results for the binding result in test [1] and in test [2] were “no binding” and “binds”, respectively.

For the origin of these results see article doi:10.1101/2023.07.27.550782.
